Measurements taken from the supplement of paper PMC10849652.
This is one part of the list. Residues, ends and D or L forms follow the SMILES beside them. *: point of attachment. Cbz = O=C(OCc1ccccc1)*

Chains of the proteins cited; added tags and fusions are not shown. Lines headed by an entry give the natural chain unless they say otherwise; changes in a name come on top.
UniProt Q9BX68: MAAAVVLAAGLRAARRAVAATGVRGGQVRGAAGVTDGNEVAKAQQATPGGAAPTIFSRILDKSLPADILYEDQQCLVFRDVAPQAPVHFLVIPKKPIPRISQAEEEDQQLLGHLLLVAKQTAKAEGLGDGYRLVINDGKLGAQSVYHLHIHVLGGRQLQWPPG
UniProt Q53T59: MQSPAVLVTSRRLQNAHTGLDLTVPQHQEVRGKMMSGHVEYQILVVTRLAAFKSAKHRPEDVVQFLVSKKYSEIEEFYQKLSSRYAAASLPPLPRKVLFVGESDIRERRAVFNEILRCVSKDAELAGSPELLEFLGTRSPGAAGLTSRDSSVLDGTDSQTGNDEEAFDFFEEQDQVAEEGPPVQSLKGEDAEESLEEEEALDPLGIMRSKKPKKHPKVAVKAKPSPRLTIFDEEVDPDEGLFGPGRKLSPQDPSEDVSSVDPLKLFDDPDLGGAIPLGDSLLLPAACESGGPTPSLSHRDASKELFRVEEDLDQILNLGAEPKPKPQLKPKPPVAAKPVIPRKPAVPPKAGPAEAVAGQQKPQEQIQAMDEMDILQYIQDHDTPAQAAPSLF
UniProt Q58FF7, whole entry, looked up: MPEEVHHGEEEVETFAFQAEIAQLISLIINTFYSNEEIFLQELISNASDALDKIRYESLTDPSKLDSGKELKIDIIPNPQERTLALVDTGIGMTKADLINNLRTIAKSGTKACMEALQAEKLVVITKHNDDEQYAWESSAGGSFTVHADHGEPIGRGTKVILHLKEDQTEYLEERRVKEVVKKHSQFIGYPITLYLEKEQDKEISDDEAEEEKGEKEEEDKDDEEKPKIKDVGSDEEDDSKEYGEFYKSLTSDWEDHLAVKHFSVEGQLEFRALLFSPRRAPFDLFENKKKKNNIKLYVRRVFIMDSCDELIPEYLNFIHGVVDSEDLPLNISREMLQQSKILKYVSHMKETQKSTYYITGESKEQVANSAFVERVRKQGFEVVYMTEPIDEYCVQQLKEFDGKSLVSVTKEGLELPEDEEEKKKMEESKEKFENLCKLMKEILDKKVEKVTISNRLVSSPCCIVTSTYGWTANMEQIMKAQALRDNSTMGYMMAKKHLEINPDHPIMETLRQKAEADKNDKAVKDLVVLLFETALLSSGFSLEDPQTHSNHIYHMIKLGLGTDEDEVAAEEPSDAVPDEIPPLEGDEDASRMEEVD
UniProt Q92902: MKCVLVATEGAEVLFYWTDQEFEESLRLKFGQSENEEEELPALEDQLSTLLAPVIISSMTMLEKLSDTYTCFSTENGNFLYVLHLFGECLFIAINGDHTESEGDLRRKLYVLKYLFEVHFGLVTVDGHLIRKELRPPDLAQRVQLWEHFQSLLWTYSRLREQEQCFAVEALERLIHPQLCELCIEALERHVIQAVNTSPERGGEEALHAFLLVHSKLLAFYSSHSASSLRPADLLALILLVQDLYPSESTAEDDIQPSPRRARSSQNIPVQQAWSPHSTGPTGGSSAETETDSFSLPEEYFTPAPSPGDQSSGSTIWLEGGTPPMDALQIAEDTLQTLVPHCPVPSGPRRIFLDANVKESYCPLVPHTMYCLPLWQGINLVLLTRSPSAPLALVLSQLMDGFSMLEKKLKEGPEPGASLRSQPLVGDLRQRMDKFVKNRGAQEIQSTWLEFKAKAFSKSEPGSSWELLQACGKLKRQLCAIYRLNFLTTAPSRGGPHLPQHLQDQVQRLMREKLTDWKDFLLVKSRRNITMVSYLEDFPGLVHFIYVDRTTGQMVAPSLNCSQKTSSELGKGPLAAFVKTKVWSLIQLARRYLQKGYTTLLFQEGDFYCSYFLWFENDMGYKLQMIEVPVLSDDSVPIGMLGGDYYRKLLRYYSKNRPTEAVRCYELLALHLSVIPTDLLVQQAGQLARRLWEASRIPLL
UniProt Q8IWL3: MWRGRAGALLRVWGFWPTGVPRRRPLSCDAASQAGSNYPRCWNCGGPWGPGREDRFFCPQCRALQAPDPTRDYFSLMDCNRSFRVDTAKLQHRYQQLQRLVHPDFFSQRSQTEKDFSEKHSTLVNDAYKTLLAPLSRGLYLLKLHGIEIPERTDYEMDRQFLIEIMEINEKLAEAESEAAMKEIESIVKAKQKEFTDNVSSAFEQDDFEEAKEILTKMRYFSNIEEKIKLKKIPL

Key:
Experiment in all cases: log2 fold change, soluble protein after heating vs DMSO (PISA); higher = thermal stabilisation; K562 cells, 10 uM, 30 min; active = over 0.2 and 3.5 SD of the protein, either way, in both replicates (recomputed)
erlotinib = compound: C#Cc1cccc(Nc2ncnc3cc(OCCOC)c(OCCOC)cc23)c1 [erlotinib]
Summary of the method: (§1)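 K562 cells at 2×10^6 cells/mL were exposed to 10 μM compound for 30 min, then aliquots were heated for 3 min across 48°C-58°C, pooled, and extracted in PBS containing 0.5% NP-40 at 4°C. The supernatant after 21,000xg for 90 min was taken as soluble protein and measured by TMTpro 16plex LC-MS/MS with channel sums equalised. Thermal stability is reported relative to control samples, with values from duplicates. Fold changes are given on a log2 scale.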

[1] = compound: C/C(=N\NC(=O)C1=CC(=CC=C1)S(=O)(=O)N2CCOCC2)/C3=C(C=CC(=C3)Cl)O
Summary of the method: as §1

[2] = compound: C1=CC(=CC=C1C2=NC3=C(N2)C=C(C=C3)C(=O)N)OC4=CC=C(C=C4)Cl
Summary of the method: as §1

[3] = compound: C1=CC2=C(C=CC(=C2)/C=C\3/C(=O)NC(=NCC4=CC=CS4)S3)N=C1
Summary of the method: as §1

[4] = compound: C1=CC2=NC=CN=C2C=C1/C=C/3\C(=O)NC(=O)S3
Summary of the method: as §1

[5] = compound: C1=CC=C(C=C1)C2=NC(=C(N2)C3=CC=NC=C3)C4=CC(=C(C=C4)Cl)O
Summary of the method: as §1

[6] = compound: C1=CC=C2C(=C1)C3=NNC4=CC=CC(=C43)C2=O
Summary of the method: as §1

[7] = compound: C1CCN(C1)C(=O)NC2=CC=CC(=C2)NC3=NC=C(C(=N3)NCCC4=CN=CN4)Br
Summary of the method: as §1

[8] = compound: C1CN(CCC1(CC2=CC=C(C=C2)Cl)N)C3=NC=NC4=C3C=CN4
Summary of the method: as §1

IRAK-1-4 Inhibitor I = compound: C1COCCN1CCN2C3=CC=CC=C3N=C2NC(=O)C4=CC(=CC=C4)[N+](=O)[O-] [IRAK-1-4 Inhibitor I]
Summary of the method: as §1

ibrutinib = compound: C=CC(=O)N1CCC[C@@H](n2nc(-c3ccc(Oc4ccccc4)cc3)c3c(N)ncnc32)C1 [ibrutinib]
Summary of the method: as §1

[9] = compound: CC(=O)c1cnc2ccc(-c3cc(Cl)c(O)c(Cl)c3)nc2c1N[C@H]1CC[C@H](CN(C)C)CC1
Summary of the method: as §1

ralimetinib = compound: CC(C)(C)Cn1c(N)nc2ccc(-c3[nH]c(C(C)(C)C)nc3-c3ccc(F)cc3)nc21 [ralimetinib]
Summary of the method: as §1

[10] = compound: CC(C)C1=C2N=C(C=C(N2N=C1)NCC3=CC=CC=C3)NCCCCCCN
Summary of the method: as §1

[11] = compound: CC(C)C[C@@H](C=O)NC(=O)[C@H](CC(C)C)NC(=O)[C@H](CC(C)C)NC(=O)OCc1ccccc1
Summary of the method: as §1

pinometostat = compound: CC(C)N(C[C@H]1O[C@@H](n2cnc3c(N)ncnc32)[C@H](O)[C@@H]1O)[C@H]1C[C@@H](CCc2nc3cc(C(C)(C)C)ccc3[nH]2)C1 [pinometostat]
Summary of the method: as §1

[12] = compound: CC1=C(C(CC(=O)N1)C2=CC=C(C=C2)C(F)(F)F)C(=O)NC3=C(C=C4C(=C3)C=NN4)F
Summary of the method: as §1

[13] = compound: CC1=C(C2=C(C=C1)C(=O)C3=CC=CC=C3N2CCCN)C
Summary of the method: as §1

[14] = compound: C1=CC(=C(C=C1Cl)C2=NC3=NC=CN=C3C(=N2)NC4=CC=NC=C4)F
Summary of the method: as §1

[15] = compound: CC(C)(O)CC(=O)NCCn1ccc2ncnc(Nc3ccc(Oc4cccc(C(F)(F)F)c4)c(Cl)c3)c21
Summary of the method: as §1

Measured: log2 fold change

HINT2 (UniProt Q9BX68)
inactive: erlotinib -0.004 | [1] 0.034 | [2] 0.009 | [3] 0.077 | [4] 0.104 | [5] 0.088 | [6] -0.048 | [7] -0.078 | [8] -0.168 | IRAK-1-4 Inhibitor I -0.09 | ibrutinib 0.008 | [9] -0.088 | ralimetinib -0.053 | [10] 0.058 | [11] -0.028 | pinometostat 0.053 | [12] 0.023 | [13] 0.244

HS1BP3 (UniProt Q53T59)
inactive: erlotinib 0.008 | [1] 0.042 | [14] 0 | [2] -0.073 | [3] 0.147 | [4] -0.008 | [5] -0.032 | [6] -0.03 | IRAK-1-4 Inhibitor I 0.004 | ibrutinib -0.029 | [9] -0.117 | ralimetinib 0.038 | [15] -0.059 | [10] -0.038 | [11] 0.086 | pinometostat -0.002

HSP90AB3P (UniProt Q58FF7)
inactive: erlotinib -0.139 | [1] -0.096 | [2] -0.096 | [3] 0.116 | [4] 0.037 | [5] -0.062 | [6] -0.213 | IRAK-1-4 Inhibitor I -0.01 | ibrutinib 0.014 | [9] 0.076 | ralimetinib 0.057 | [10] 0.049 | [11] 0.157 | pinometostat -0.001 | [12] 0.047

HPS1 (UniProt Q92902)
inactive: erlotinib -0.06 | [1] 0.006 | [2] -0.047 | [3] 0.226 | [4] 0.135 | [5] 0.026 | [6] 0.142 | [7] 0.1 | [8] -0.012 | ibrutinib -0.021 | [9] -0.07 | ralimetinib -0.034 | [10] -0.004 | [11] 0.11 | [12] -0.011 | [13] 0.06

HIST2H3A (UniProt Q71DI3)
inactive: erlotinib 0.113 | [1] -0.114 | [14] -0.305 | [2] -0.028 | [3] 0.011 | [4] 0.221 | [5] 0.047 | [6] -0.004 | [7] 0.287 | [8] -0.378 | IRAK-1-4 Inhibitor I -0.269 | ibrutinib 0.081 | [9] -0.012 | ralimetinib 0.292 | [15] -0.021 | [10] -0.225 | [11] 0.18 | pinometostat 0.29 | [13] 0.727

HRAS (UniProt P01112)
inactive: erlotinib 0.029 | [1] 0.034 | [14] 0.069 | [2] 0.146 | [3] -0.356 | [4] -0.244 | [5] 0.138 | [6] -0.168 | [7] -0.08 | [8] 0.048 | IRAK-1-4 Inhibitor I 0.093 | ibrutinib 0.143 | [9] 0.065 | ralimetinib 0 | [15] -0.004 | [10] 0.047 | [11] 0.13 | pinometostat -0.059 | [13] -0.121

HSCB (UniProt Q8IWL3)
inactive: erlotinib 0.132 | [1] 0.093 | [14] 0.066 | [2] -0.149 | [3] 0.071 | [5] 0.02 | [6] -0.017 | [7] 0.019 | [8] 0.04 | IRAK-1-4 Inhibitor I -0.049 | [9] 0.184 | ralimetinib 0.004 | [15] -0.007 | [10] -0.06 | [11] 0.045 | pinometostat 0.138 | [12] -0.009 | [13] -0.104
